Measurements reported in PubChem BioAssay AID652272 (Drosophila RNAi Screening Center, 2013)
In all, the deposit lists about 21,000 reagents; this is an unselected part of those with a known target gene and a result. Of all reagents, 503 (2.4%) are marked active. 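Raw plate light values, not normalised; calls rest on replicate z-scores that were not deposited; hits include reporter decreases as well as increases.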 The record does not give: the amount of reagent, the time to read-out.

Purpose: 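Genes whose knock-down decreases or increases Hedgehog reporter output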 (primary screen)
Cells: Drosophila clone 8 (Cl8) cells
Knock-down reagent: long dsRNA against Drosophila genes
Measurement: 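Firefly light from a Hedgehog-responsive ptc promoter reporter and Renilla reference light, both read on a plate reader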
Direction: firefly Hh reporter signal: higher = more ptc reporter light; Renilla reference signal: higher = more Renilla control light
Hit rule: 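Hit when the z-score averaged over two replicates is under -2 or over +3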
Meaning of the calls: active = hit: reporter lowered or raised; inactive = not a hit

Which result is listed for CG2608 [DRSC02709]?
firefly Hh reporter signal, replicate 1: 83312; firefly Hh reporter signal, replicate 2: 42840; Renilla reference signal, replicate 1: 2517; Renilla reference signal, replicate 2: 1552; Call: inactive

For MRP [DRSC02942], what was measured?
firefly Hh reporter signal, replicate 1: 98875; firefly Hh reporter signal, replicate 2: 36208; Renilla reference signal, replicate 1: 4290; Renilla reference signal, replicate 2: 2000; Call: inactive

With ndl [DRSC11374], what does the deposit list?
firefly Hh reporter signal, replicate 1: 49894; firefly Hh reporter signal, replicate 2: 75271; Renilla reference signal, replicate 1: 4055; Renilla reference signal, replicate 2: 4997; Call: inactive

With Syx1A [DRSC15359], what does the deposit list?
firefly Hh reporter signal, replicate 1: 5.51e5; firefly Hh reporter signal, replicate 2: 84260; Renilla reference signal, replicate 1: 29910; Renilla reference signal, replicate 2: 2624; Call: inactive

For Zfrp8 [DRSC04352], what does the deposit list?
firefly Hh reporter signal, replicate 1: 80829; firefly Hh reporter signal, replicate 2: 47816; Renilla reference signal, replicate 1: 1873; Renilla reference signal, replicate 2: 4921; Call: inactive

Which result is listed for MFS1 [DRSC04115]?
firefly Hh reporter signal, replicate 1: 70317; firefly Hh reporter signal, replicate 2: 42118; Renilla reference signal, replicate 1: 1260; Renilla reference signal, replicate 2: 3907; Call: inactive

With Bili [DRSC14405], what was measured?
firefly Hh reporter signal, replicate 1: 78848; firefly Hh reporter signal, replicate 2: 50555; Renilla reference signal, replicate 1: 2890; Renilla reference signal, replicate 2: 1896; Call: inactive

How did the screen score Pi3K92E [DRSC16788]?
firefly Hh reporter signal, replicate 1: 1.07e5; firefly Hh reporter signal, replicate 2: 60725; Renilla reference signal, replicate 1: 4779; Renilla reference signal, replicate 2: 2880; Call: inactive

For Ndfip [DRSC11201], what was measured?
firefly Hh reporter signal, replicate 1: 1.19e5; firefly Hh reporter signal, replicate 2: 67437; Renilla reference signal, replicate 1: 4421; Renilla reference signal, replicate 2: 2838; Call: inactive

What did the screen give for CG34457 [DRSC06924]?
firefly Hh reporter signal, replicate 1: 89738; firefly Hh reporter signal, replicate 2: 40387; Renilla reference signal, replicate 1: 2305; Renilla reference signal, replicate 2: 3232; Call: inactive

Which result is listed for CNT2 [DRSC07073]?
firefly Hh reporter signal, replicate 1: 1.11e5; firefly Hh reporter signal, replicate 2: 40790; Renilla reference signal, replicate 1: 4477; Renilla reference signal, replicate 2: 1850; Call: inactive

With Cdk5alpha [DRSC03290], what does the deposit list?
firefly Hh reporter signal, replicate 1: 1.02e5; firefly Hh reporter signal, replicate 2: 44885; Renilla reference signal, replicate 1: 2756; Renilla reference signal, replicate 2: 4595; Call: inactive

How did the screen score Fas3 [DRSC01638]?
firefly Hh reporter signal, replicate 1: 78951; firefly Hh reporter signal, replicate 2: 1.66e5; Renilla reference signal, replicate 1: 1863; Renilla reference signal, replicate 2: 8760; Call: inactive

For Fas3 [DRSC03326], what does the deposit list?
firefly Hh reporter signal, replicate 1: 1.27e5; firefly Hh reporter signal, replicate 2: 51960; Renilla reference signal, replicate 1: 3084; Renilla reference signal, replicate 2: 2512; Call: inactive

What did the screen give for CG12895 [DRSC06210]?
firefly Hh reporter signal, replicate 1: 1.44e5; firefly Hh reporter signal, replicate 2: 71329; Renilla reference signal, replicate 1: 3728; Renilla reference signal, replicate 2: 6225; Call: inactive

How did the screen score CG14854 [DRSC14978]?
firefly Hh reporter signal, replicate 1: 90485; firefly Hh reporter signal, replicate 2: 99255; Renilla reference signal, replicate 1: 3305; Renilla reference signal, replicate 2: 2532; Call: inactive

Which result is listed for Gp150 [DRSC04618]?
firefly Hh reporter signal, replicate 1: 2.08e5; firefly Hh reporter signal, replicate 2: 76979; Renilla reference signal, replicate 1: 5092; Renilla reference signal, replicate 2: 2050; Call: inactive

For CG18662 [DRSC02691], what does the deposit list?
firefly Hh reporter signal, replicate 1: 1.16e5; firefly Hh reporter signal, replicate 2: 40365; Renilla reference signal, replicate 1: 3077; Renilla reference signal, replicate 2: 4281; Call: inactive

Which result is listed for CG1513 [DRSC05194]?
firefly Hh reporter signal, replicate 1: 95708; firefly Hh reporter signal, replicate 2: 2.10e5; Renilla reference signal, replicate 1: 2316; Renilla reference signal, replicate 2: 8187; Call: inactive

With CG1513 [DRSC06553], how do the results read?
firefly Hh reporter signal, replicate 1: 4.32e5; firefly Hh reporter signal, replicate 2: 75649; Renilla reference signal, replicate 1: 3780; Renilla reference signal, replicate 2: 3780; Call: inactive

How did the screen score CG1513 [DRSC06554]?
firefly Hh reporter signal, replicate 1: 1.41e5; firefly Hh reporter signal, replicate 2: 83289; Renilla reference signal, replicate 1: 3464; Renilla reference signal, replicate 2: 6084; Call: inactive

3 entries from above in another layout:
ndl [DRSC11374]
- firefly Hh reporter signal, replicate 1: 49894
- firefly Hh reporter signal, replicate 2: 75271
- Renilla reference signal, replicate 1: 4055
- Renilla reference signal, replicate 2: 4997
- Call: inactive

Syx1A [DRSC15359]
- firefly Hh reporter signal, replicate 1: 5.51e5
- firefly Hh reporter signal, replicate 2: 84260
- Renilla reference signal, replicate 1: 29910
- Renilla reference signal, replicate 2: 2624
- Call: inactive

Zfrp8 [DRSC04352]
- firefly Hh reporter signal, replicate 1: 80829
- firefly Hh reporter signal, replicate 2: 47816
- Renilla reference signal, replicate 1: 1873
- Renilla reference signal, replicate 2: 4921
- Call: inactive
